Assay results reported in US5891435A, “Methods and compositions for delaying or preventing the onset of autoimmune disease” (Research Corporation Technologies, Inc., priority 1993, dated 1999).
Part of at least one peptide drawing is inferred or uncertain, most often the ends. Where no end group is shown, it is not given here.

Tested on: NOD mice
Assay: Subcutaneous immunization in IFA, development of diabetes in NOD mice
Assay type: in vivo, mouse
Text: NOD/Uf mice (Winter [1990] Diabetes 39:975-982) were bred and maintained in the temperature and light controlled facility of the Department of Pathology at the University of Florida. After weaning at 3-4 weeks of age, littermates were housed in groups of no more than 6 per cage. A soy and […]-based chow (Harlan, Madison, Wis.) and water were available ad libitum. Typical diabetes rates in the NOD/Uf colony at 40 weeks of age are near 90% in females and 30% in males. Littermates were divided into 3 groups. […] Complete Freund's adjuvant was avoided because of its known protective effect in NOD mice (Qin et al. [1993] J. Immunol. 150:2072-2080). […] Treatments started at 4 weeks of age and subsequent immunizations were administered at ages 12, 16, and 22 weeks. […] In addition, 2 new treatments were assessed. […] As in the first study, immunizations were given in IFA commencing at 4 weeks of age, but subsequent injections were given at 8 week intervals. In a third NOD mouse experiment, controlled by 18, 0.9% saline+IFA-treated littermates (10 female and 8 male), 18 mice received 250 μg BSA (Sigma) in IFA (10 female and 8 male). A third group of 21 littermates was treated with 100 μg of the 17 amino acid component peptide of BSA called ABBOS in IFA (11 female and 10 male). […] Blood glucose was determined using a Chemstrip bG (Boehringer Mannheim) read visually as verified by a reflectance meter. […]

| Sequence | Protective effect against diabetes (in words) |
| --- | --- |
| FVNQHLCGS [SEQ ID NO. 2, phe-val-asn-gln-his-leu-cys-gly-ser] | found to have a protective effect |
| GSHLVEALYLV [SEQ ID NO. 1, gly-ser-his-leu-val-glu-ala-leu-tyr-leu-val] | major epitope involved in the protective effect |
